This data set can be described thus: Tc-99m labeling as a function of ligand amount.

In the case of `N[C@@H](CCCCN(Cc1ccccn1)Cc1ccccn1)C(=O)O` [DpK], the “% Labeled” value runs as follows: (Ligand amount 0.1 μg) 5%; (Ligand amount 1 μg) 16%; (Ligand amount 10 μg) 32%; (Ligand amount 100 μg) 47%; (Ligand amount 500 μg) 100%.

As to `O=C(NC(CCCCN(Cc1ccccn1)Cc1ccccn1)C(=O)O)OCC1c2ccccc2-c2ccccc21` (stereo not drawn) [Fmoc-DpK, [ε-{N,N-di(pyridyl-2-methyl)}α-(fmoc)lysine]], the “% Labeled” value (Ligand amount 0.1 μg) is given as 7%; the “% Labeled” value (Ligand amount 1 μg) was 52%; the “% Labeled” value (Ligand amount 10 μg) is reported as 93.9%; the “% Labeled” value (Ligand amount 100 μg) worked out at 100%; the “% Labeled” value (Ligand amount 500 μg) worked out at 100%.

Values taken from US20090148382A1, “Technetium- and rhenium-bis(heteroaryl) complexes, and methods of use thereof” (Molecular Insight Pharmaceuticals, Inc., priority 2004, published 2009).
